The record followed here is PubChem BioAssay AID330 (DTP/NCI, 2004).

The subject of this assay is P388 leukemia ip, CD2F1 mice, survival T/C. Nature of the assay: NCI In Vivo Anticancer Drug Screen. Data for tumor model P388 Leukemia (intraperitoneal) in CD2F1 (CDF1) mice. The conditions noted are these: T/C endpoint: median survival time, higher T/C = longer survival.
Setting [1] is: dose: 25.0 mg/kg/injection, schedule: Q04DX003 (ip), vehicle: other.
The mark [2] stands for this setting: dose: 200.0 mg/kg/injection, schedule: Q01DX005 (ip), vehicle: Klucel (hydroxypropylcellulose) (HPC).
The mark [3] stands for this setting: dose: 100.0 mg/kg/injection, schedule: Q01DX009 (ip), vehicle: saline with Tween-80.
The mark [4] stands for this setting: dose: 200.0 mg/kg/injection, schedule: Q01DX005 (ip), vehicle: saline with Tween-80.
Setting [5] is: dose: 240.0 mg/kg/injection, schedule: Q01DX005 (ip), vehicle: saline with Tween-80.
Setting [6] is: dose: 120.0 mg/kg/injection, schedule: Q01DX005 (ip), vehicle: saline.
The mark [7] stands for this setting: dose: 240.0 mg/kg/injection, schedule: Q01DX005 (ip), vehicle: saline.
Where [8] appears, read: dose: 400.0 mg/kg/injection, schedule: Q04DX003 (ip), vehicle: saline with Tween-80.
The mark [9] stands for this setting: dose: 100.0 mg/kg/injection, schedule: Q04DX002 (ip), vehicle: saline.
[10] abbreviates: dose: 200.0 mg/kg/injection, schedule: Q04DX002 (ip), vehicle: saline.
[11] abbreviates: dose: 400.0 mg/kg/injection, schedule: Q04DX002 (ip), vehicle: saline.
Where [12] appears, read: dose: 50.0 mg/kg/injection, schedule: Q01DX009 (ip), vehicle: water.

The list does not hold the whole screen: it is rich in T/C values a quarter to a half above the control, in often repeated tests (any T/C) and in doses without a T/C. Other doses and runs of a compound stand elsewhere. T/C gives the treated animals as a percentage of the vehicle group. Some doses have a count of surviving animals in place of a T/C: the source holds a T/C of zero for them, seemingly a mark for toxic or unscored doses. Some doses without a T/C left all or most animals alive at the check, yet need not have been tolerated: survival well below the control is almost never listed, so the zero probably covers shortened survival too. Counts of survivors are from the toxicity check (mostly the fifth day) where no day follows; animals may have died later. Schedules are NCI's codes, taken here to give the interval after Q, in days (D) or hours (H), and the number of doses after X. Additions like (4×) say how often a value occurs here. Some doses were run more than once; the values are given in rising order. For survival time, this PubChem deposit counts one and a half times the control or more as active, and values a quarter to a half above the control carry no call in these data; other NCI protocols may use other cut-offs. Some T/C values are followed by the survivors on the day toxicity was checked, most often the fifth; without a count, all were alive then.

On to `Nc1cc2c(c[n+](CCCBr)c3ccccc23)c2ccccc12`, for which the T/C by setting is: (dose: 3.13 mg/kg/injection, schedule: Q04DX003 (ip), vehicle: other) 128 % of control; (dose: 6.25 mg/kg/injection, schedule: Q04DX003 (ip), vehicle: other) 142 % of control; (dose: 12.5 mg/kg/injection, schedule: Q04DX003 (ip), vehicle: other) 127 and 140 % of control [4 of 6 alive]; under setting [1], 137 % of control [5 of 6 alive]. In addition, the survivor count by setting is: under setting [1], 0 of 6; (dose: 50.0 mg/kg/injection, schedule: Q04DX003 (ip), vehicle: other) 1 of 6; (dose: 100.0 mg/kg/injection, schedule: Q04DX003 (ip), vehicle: other) 0 of 6.

As to `COC(=O)C[CH2][Sn]([CH3])([CH3])[CH2]CC(=O)OC`, under setting [2], the survivor count is listed as 1 of 6.

With `CCCC(O)(CCC)/C(C)=N/O`, the survivor count under setting [3] was 6 of 6.

Regarding `O=c1c(Cl)cc(Cl)cn1S(=O)(=O)c1ccc([N+](=O)[O-])cc1`, the T/C (dose: 400.0 mg/kg/injection, schedule: Q01DX009 (ip), vehicle: saline with Tween-80) was 128 % of control.

For `C(=C\c1ccccc1)/c1ccccc1`, the survivor count is given as 1 of 6 (dose: 50.0 mg/kg/injection, schedule: Q01DX005 (ip), vehicle: saline with Tween-80); 0 of 6 (dose: 100.0 mg/kg/injection, schedule: Q01DX005 (ip), vehicle: saline with Tween-80); 0 of 6 under setting [4].

For the molecule `CC(=O)O[C@@H]1[C@@H](O)C2=C3[C@]4(C)[C@@H]1C(C)(C)C(=O)C[C@@H]4[C@]3(O)[C@H](OC(C)=O)[C@@]1(C[C@@H]1C)C2=O`, the T/C (dose: 50.0 mg/kg/injection, schedule: Q01DX009 (ip), vehicle: other) is 132 % of control and the T/C (dose: 50.0 mg/kg/injection, schedule: Q01DX009 (ip), vehicle: saline with Tween-80) was 126 % of control. The survivor count reads like this: (dose: 100.0 mg/kg/injection, schedule: Q01DX009 (ip), vehicle: other) 5 of 6; under setting [3], 3 of 6.

`O=C1C(O)=C(O)C(=O)C(O)=C1O`: the survivor count (dose: 400.0 mg/kg/injection, schedule: Q01DX009 (ip), vehicle: saline) is on record as 5 of 6.

For `Cc1cc(=O)oc2c1ccc1c(O)cccc12`, under setting [5], the survivor count was 0 of 6.

Turning to `CC(CN(C)C)C(=O)/C=C/c1ccc(F)cc1` (configuration not stated), the T/C under setting [6] is 127 and 129 % of control. Besides, the survivor count under setting [7] was 0 of 6.

For the molecule `CCCCCCC(O)C(CCCCCC)[Se]C` (configuration not stated), the survivor count is on record as 2 of 6 (dose: 200.0 mg/kg/injection, schedule: Q04DX003 (ip), vehicle: saline with Tween-80) and 0 of 6 under setting [8].

`CC(=O)C(Cl)c1ccccc1Cl` (configuration not stated): the T/C (dose: 100.0 mg/kg/injection, schedule: Q01DX009 (ip), vehicle: Klucel (hydroxypropylcellulose) (HPC)) is 125 % of control. The survivor count (dose: 200.0 mg/kg/injection, schedule: Q01DX009 (ip), vehicle: Klucel (hydroxypropylcellulose) (HPC)) was 1 of 6 and 4 of 6.

`c1ccc(-c2cc[n+]3c4c2ccc2c(-c5ccccc5)cc[n+](c24)CC3)cc1`: for the setting “dose: 50.0 mg/kg/injection, schedule: Q01DX009 (ip), vehicle: saline”, the survivor count is 1 of 6.

Consider `N#CC(OC(=O)c1ccccc1)C(OC(=O)c1ccccc1)C(COC(=O)c1ccccc1)OC(=O)c1ccccc1` (configuration not stated), for which, under setting [4], the survivor count was 5 of 5.

As to `OCCOCCN1CCN(C(c2ccccc2)c2ccccc2)CC1`, the survivor count (dose: 200.0 mg/kg/injection, schedule: Q01DX009 (ip), vehicle: saline) was 1 of 6.

For the molecule `CCOC(=N)N1[C@H](C)[C@H]1C`, the survivor count under setting [9] is 0 of 6, the survivor count under setting [10] is reported as 0 of 6 and the survivor count under setting [11] was 0 of 6.

Take `COC(=O)Cc1nc2c(=O)[nH]c(N)nc2[nH]c1=O`: the survivor count is on record as 4 of 6 (dose: 100.0 mg/kg/injection, schedule: Q01DX005 (ip), vehicle: Klucel (hydroxypropylcellulose) (HPC)) and 3 of 6 under setting [2].

Take `C=C1C(=O)OC2/C=C(/C)CC/C=C(\C(=O)O)CC/C=C(\C)CCC12` (configuration not stated): under setting [8], the survivor count is reported as 0 of 6.

For the molecule `COC(=O)C1CC(OC(C)=O)C(=O)[C@H]2C1(C)CC[C@H]1C(=O)O[C@H](c3ccoc3)CC12C` (some centres not stated), the survivor count (dose: 152.0 mg/kg/injection, schedule: Q01DX005 (ip), vehicle: Klucel (hydroxypropylcellulose) (HPC)) is recorded as 6 of 6.

As to `CC1(C)c2ccccc2Nc2ccccc21`, the survivor count under setting [8] is on record as 5 of 6.

With `CN1CC=C(c2ccccc2)C(O)C1` (configuration not stated), the survivor count is 0 of 6 under setting [9]; 0 of 6 under setting [6]; 0 of 6 under setting [10]; 0 of 6 under setting [7]; 0 of 6 under setting [11].

`N#CC(C#N)=C(C#N)Nc1ccc(F)cc1`: the survivor count (dose: 120.0 mg/kg/injection, schedule: Q01DX005 (ip), vehicle: Klucel (hydroxypropylcellulose) (HPC)) is recorded as 0 of 6.

On to `S=C(N/N=C/c1c[nH]c2ccccc12)NC12CC3CC(CC(C3)C1)C2`, for which, under setting [5], the survivor count is 6 of 6.

In the case of `Fc1cccc(CSc2ncnc3nc[nH]c23)c1`, the survivor count under setting [8] is given as 1 of 6.

For `CCC=Nc1c(O)cc(-c2ccccc2)n(C)c1=O`, the survivor count under setting [5] is 0 of 6.

On to `NC(=O)CCC(N)C(=O)O.[Cl-].[Cl-].[Cl-].[Cl-].[Pt+2]` (configuration not stated), for which the T/C is 129 % of control (dose: 1.56 mg/kg/injection, schedule: Q01DX009 (ip), vehicle: water); 125 and 129 % of control (dose: 3.13 mg/kg/injection, schedule: Q01DX009 (ip), vehicle: water, evaluated on day 30); 128 % of control (dose: 3.13 mg/kg/injection, schedule: Q01DX009 (ip), vehicle: water, evaluated on day 35); 136 % of control (dose: 6.25 mg/kg/injection, schedule: Q01DX009 (ip), vehicle: water, evaluated on day 30); 133 % of control (dose: 6.25 mg/kg/injection, schedule: Q01DX009 (ip), vehicle: water, evaluated on day 35); 138 and 147 % of control (dose: 12.5 mg/kg/injection, schedule: Q01DX009 (ip), vehicle: water, evaluated on day 30). In addition, the T/C runs as follows: (dose: 12.5 mg/kg/injection, schedule: Q01DX009 (ip), vehicle: water, evaluated on day 35) 141 % of control; (dose: 16.5 mg/kg/injection, schedule: Q01DX009 (ip), vehicle: saline) 129 % of control; (dose: 25.0 mg/kg/injection, schedule: Q01DX009 (ip), vehicle: saline) 133 and 139 % of control; (dose: 25.0 mg/kg/injection, schedule: Q01DX009 (ip), vehicle: water, evaluated on day 30) 138 and 140 % of control; (dose: 25.0 mg/kg/injection, schedule: Q01DX009 (ip), vehicle: water, evaluated on day 35) 142 % of control; under setting [12], 137 [5 of 6 alive] and 146 % of control [5 of 6 alive]. Also, the survivor count (dose: 25.0 mg/kg/injection, schedule: Q01DX009 (ip), vehicle: water) is listed as 6 of 6; the survivor count under setting [12] is 0 of 6 and 1 of 6; the survivor count (dose: 100.0 mg/kg/injection, schedule: Q01DX009 (ip), vehicle: saline) is given as 0 of 6; the survivor count (dose: 100.0 mg/kg/injection, schedule: Q01DX009 (ip), vehicle: water) is 0 of 6 (3×) and 1 of 6; the survivor count (dose: 200.0 mg/kg/injection, schedule: Q01DX009 (ip), vehicle: water) was 0 of 6 (2×).
